Assay results from paper PMC8555832.
Results are given in words; binding and its absence hold for the method and conditions named. In cells and extracts the contact can be indirect. Here binding means that the protein was enriched with, or labelled near, the bait; the list need not be complete. Sequences can lack the tags named with a protein.

Sequences of proteins named here, by UniProt entry; tags and fusion partners are left off.
UniProt Q96Q15: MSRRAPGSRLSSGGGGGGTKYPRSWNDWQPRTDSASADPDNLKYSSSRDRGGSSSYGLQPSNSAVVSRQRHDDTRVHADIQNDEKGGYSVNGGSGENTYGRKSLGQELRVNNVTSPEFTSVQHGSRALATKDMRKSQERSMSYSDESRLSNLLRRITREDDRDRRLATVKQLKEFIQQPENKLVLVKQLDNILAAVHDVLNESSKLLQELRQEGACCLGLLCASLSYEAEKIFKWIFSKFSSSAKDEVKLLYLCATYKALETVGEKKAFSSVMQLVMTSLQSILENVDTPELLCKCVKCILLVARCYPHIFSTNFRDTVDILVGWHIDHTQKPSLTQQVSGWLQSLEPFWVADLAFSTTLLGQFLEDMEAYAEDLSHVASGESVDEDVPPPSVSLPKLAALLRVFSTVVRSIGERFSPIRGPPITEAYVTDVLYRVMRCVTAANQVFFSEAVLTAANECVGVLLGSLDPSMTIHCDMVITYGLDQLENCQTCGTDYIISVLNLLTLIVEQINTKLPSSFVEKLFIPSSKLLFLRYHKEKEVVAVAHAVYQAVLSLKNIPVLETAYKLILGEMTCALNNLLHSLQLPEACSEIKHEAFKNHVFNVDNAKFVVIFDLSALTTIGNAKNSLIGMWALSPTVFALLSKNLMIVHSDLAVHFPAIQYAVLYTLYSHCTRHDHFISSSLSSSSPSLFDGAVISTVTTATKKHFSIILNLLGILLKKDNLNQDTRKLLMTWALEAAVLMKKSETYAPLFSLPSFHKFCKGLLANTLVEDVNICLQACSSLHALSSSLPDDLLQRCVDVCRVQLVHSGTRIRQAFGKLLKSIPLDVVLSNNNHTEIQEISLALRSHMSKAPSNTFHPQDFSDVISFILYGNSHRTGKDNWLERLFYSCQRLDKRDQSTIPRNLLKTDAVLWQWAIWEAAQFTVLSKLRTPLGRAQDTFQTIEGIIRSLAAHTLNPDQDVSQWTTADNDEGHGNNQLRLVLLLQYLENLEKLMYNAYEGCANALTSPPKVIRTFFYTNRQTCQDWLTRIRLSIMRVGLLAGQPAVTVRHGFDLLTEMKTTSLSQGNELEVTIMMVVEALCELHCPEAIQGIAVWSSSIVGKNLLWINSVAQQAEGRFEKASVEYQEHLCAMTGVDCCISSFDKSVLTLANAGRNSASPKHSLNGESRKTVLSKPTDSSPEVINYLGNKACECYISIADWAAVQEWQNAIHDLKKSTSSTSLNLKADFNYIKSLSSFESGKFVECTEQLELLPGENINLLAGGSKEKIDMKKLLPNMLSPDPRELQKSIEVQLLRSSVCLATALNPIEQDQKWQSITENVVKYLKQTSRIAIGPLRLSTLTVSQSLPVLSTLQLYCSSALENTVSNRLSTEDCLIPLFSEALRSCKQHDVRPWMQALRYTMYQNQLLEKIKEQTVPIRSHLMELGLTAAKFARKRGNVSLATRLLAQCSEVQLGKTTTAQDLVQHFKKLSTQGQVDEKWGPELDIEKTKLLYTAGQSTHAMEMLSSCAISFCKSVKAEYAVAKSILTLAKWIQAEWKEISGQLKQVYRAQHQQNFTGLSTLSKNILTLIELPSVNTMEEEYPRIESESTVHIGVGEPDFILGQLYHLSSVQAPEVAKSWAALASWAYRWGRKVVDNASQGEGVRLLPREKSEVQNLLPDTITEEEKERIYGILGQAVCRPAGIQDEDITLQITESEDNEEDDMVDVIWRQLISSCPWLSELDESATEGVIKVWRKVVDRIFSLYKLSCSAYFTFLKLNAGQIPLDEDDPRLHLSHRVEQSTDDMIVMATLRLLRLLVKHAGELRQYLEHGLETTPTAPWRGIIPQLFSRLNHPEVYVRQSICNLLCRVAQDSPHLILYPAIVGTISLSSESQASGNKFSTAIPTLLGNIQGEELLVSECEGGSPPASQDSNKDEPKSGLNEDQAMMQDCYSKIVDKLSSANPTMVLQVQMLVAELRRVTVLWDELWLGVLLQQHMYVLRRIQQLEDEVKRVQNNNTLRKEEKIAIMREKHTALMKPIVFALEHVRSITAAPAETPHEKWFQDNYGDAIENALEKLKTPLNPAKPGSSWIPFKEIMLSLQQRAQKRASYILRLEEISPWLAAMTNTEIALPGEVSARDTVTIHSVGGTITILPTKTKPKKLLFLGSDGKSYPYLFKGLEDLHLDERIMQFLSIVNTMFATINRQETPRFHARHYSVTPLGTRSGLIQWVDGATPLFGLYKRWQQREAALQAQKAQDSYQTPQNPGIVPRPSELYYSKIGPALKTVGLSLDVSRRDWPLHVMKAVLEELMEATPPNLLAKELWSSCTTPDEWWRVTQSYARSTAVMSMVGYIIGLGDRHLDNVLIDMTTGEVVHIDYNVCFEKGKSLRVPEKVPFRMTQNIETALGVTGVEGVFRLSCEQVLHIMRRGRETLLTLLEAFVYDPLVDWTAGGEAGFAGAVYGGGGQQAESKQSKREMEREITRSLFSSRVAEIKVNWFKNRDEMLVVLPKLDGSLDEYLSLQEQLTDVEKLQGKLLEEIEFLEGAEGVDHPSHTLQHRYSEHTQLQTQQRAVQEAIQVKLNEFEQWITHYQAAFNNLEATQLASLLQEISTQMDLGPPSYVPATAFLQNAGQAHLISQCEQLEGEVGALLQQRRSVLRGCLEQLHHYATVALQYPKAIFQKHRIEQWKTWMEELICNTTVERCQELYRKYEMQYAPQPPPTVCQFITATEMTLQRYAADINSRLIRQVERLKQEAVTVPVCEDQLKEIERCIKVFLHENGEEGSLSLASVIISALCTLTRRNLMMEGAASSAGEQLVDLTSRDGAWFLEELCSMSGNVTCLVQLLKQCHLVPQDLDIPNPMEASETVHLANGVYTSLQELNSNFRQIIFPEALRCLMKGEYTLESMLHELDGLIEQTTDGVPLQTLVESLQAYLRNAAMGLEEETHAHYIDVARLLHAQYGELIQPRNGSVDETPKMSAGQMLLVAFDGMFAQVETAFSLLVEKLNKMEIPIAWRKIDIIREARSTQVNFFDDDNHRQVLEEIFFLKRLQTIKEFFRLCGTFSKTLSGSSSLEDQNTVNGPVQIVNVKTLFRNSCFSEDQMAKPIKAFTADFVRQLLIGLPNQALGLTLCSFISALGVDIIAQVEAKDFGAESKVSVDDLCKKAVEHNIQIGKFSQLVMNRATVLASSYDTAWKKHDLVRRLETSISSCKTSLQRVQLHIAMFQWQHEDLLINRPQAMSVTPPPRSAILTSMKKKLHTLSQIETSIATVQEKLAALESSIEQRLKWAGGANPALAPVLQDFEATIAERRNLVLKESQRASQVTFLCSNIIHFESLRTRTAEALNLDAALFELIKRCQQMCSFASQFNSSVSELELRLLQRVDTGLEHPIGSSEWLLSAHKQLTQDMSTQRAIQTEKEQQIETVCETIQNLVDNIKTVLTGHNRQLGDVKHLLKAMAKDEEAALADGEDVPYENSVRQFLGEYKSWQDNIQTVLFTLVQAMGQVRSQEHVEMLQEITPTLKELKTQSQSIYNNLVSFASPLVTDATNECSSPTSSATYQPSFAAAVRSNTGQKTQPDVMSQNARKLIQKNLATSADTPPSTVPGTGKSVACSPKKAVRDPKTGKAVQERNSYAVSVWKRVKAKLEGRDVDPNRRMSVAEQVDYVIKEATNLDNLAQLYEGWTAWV
UniProt O15234: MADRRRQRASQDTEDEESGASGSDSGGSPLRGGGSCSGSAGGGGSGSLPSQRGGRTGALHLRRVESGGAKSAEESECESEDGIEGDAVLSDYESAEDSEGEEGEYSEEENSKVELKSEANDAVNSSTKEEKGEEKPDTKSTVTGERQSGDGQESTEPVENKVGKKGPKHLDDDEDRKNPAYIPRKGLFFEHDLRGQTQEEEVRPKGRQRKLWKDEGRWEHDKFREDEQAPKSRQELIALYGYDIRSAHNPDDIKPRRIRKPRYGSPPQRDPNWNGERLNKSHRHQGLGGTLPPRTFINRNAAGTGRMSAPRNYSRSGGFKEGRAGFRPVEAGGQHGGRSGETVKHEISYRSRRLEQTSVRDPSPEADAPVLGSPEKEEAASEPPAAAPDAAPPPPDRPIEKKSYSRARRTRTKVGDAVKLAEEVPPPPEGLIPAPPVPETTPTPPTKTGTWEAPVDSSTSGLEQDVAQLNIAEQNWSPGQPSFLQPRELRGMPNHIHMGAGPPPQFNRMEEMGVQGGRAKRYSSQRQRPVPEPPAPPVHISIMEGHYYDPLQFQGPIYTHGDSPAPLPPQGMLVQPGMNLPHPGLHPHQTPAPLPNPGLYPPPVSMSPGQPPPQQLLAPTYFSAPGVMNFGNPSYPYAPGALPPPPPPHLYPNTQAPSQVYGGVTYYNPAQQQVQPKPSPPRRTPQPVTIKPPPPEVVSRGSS
UniProt O60573: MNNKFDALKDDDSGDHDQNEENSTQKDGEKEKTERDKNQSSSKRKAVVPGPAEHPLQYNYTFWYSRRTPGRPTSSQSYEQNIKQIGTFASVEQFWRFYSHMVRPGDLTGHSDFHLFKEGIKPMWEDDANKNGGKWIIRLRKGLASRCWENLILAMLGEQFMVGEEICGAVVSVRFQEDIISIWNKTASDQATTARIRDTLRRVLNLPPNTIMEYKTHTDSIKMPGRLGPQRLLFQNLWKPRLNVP

T1: StrepII-tagged GIGYF2 (GRB10 interacting GYF protein 2) (human) (UniProt Q6Y7W6)
T1 sequence: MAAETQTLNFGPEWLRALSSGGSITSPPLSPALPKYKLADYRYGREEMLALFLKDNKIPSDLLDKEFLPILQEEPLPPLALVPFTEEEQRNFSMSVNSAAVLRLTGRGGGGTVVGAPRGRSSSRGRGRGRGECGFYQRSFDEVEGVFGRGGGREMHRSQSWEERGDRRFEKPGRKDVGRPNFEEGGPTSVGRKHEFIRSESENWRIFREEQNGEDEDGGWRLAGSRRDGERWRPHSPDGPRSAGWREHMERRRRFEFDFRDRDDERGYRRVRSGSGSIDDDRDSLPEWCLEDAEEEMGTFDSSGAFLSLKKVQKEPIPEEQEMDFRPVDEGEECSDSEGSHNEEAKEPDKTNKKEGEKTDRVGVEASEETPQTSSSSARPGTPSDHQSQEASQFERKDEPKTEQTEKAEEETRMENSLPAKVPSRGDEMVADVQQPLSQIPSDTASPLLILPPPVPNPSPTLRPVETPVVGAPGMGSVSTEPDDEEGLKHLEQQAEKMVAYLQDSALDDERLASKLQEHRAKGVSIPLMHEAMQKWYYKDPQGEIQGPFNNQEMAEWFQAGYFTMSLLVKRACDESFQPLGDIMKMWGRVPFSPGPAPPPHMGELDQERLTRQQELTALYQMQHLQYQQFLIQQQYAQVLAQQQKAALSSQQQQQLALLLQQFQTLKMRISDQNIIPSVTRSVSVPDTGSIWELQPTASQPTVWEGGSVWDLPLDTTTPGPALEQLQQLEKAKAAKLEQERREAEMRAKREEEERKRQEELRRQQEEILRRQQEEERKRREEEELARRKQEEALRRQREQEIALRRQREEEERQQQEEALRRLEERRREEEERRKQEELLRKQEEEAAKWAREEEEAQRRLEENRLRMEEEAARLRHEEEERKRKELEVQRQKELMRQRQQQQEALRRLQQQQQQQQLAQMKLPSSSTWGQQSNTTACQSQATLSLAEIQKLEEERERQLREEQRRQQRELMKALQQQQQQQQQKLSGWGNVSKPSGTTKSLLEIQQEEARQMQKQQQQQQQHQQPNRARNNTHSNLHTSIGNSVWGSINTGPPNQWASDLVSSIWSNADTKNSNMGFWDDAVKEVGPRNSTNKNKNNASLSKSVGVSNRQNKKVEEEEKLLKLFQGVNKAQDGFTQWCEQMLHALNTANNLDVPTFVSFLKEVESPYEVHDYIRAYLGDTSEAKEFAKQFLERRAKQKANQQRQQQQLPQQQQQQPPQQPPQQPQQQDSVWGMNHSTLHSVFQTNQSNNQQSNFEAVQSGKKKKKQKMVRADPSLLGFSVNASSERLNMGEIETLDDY

B1: UPF3B (protein, UniProt Q9BZI7 1-483)
chain: MKEEKEHRPKEKRVTLLTPAGATGSGGGTSGDSSKGEDKQDRNKEKKEALSKVVIRRLPPTLTKEQLQEHLQPMPEHDYFEFFSNDTSLYPHMYARAYINFKNQEDIILFRDRFDGYVFLDNKGQEYPAIVEFAPFQKAAKKKTKKRDTKVGTIDDDPEYRKFLESYATDNEKMTSTPETLLEEIEAKNRELIAKKTTPLLSFLKNKQRMREEKREERRRREIERKRQREEERRKWKEEEKRKRKDIEKLKKIDRIPERDKLKDEPKIKVHRFLLQAVNQKNLLKKPEKGDEKELDKREKAKKLDKENLSDERASGQSCTLPKRSDSELKDEKPKRPEDESGRDYREREREYERDQERILRERERLKRQEEERRRQKERYEKEKTFKRKEEEMKKEKDTLRDKGKKAESTESIGSSEKTEKKEEVVKRDRIRNKDRPAMQLYQPGARSRNRLCPPDDSTKSGDSAAERKQESGISHRKEGGEE

Target: T1, StrepII-tagged GIGYF2 (GRB10 interacting GYF protein 2) (human)
Assay: affinity purification with mass spectrometry; StrepII-GIGYF2 captured from HEK293T lysate on MagStrep type 3 XT beads, 1 h, 4°C; lysis buffer 50 mM HEPES pH 7.4, 100 mM KOAc, 15 mM Mg(OAc)2, 5% glycerol, 0.5% Triton-X-100; eluted with biotin (Buffer BXT); LFQ intensity compared with a mock transfection; also with RNase A treatment of lysates, or cells treated with spliceostatin A (100 ng/ml, 16 h) or SMG1i (300 nM, 4 h)

binding	Molecule
binds	SMG1 (from UniProt Q96Q15 1-3661)
binds	CASC3 (from UniProt O15234 1-703)
binds	EIF4E2 (eukaryotic initiation factor 4E2) (from UniProt O60573 1-245)
binds	B1
